Reference: PubChem BioAssay AID1439 (NMMLSC, 2008)
The campaign covered roughly 220,000 compounds. About 770 (0.35%) were called active. This list was built around the results that the source calls inconclusive (neither active nor inactive); the mix of calls is not that of the screen. Rule as the data show it: active = binding response below about 49% or above about 150%; inconclusive = no clear call, values can overlap the other calls; inactive = in between.

Amino acid sequences for entries named in this document (tags omitted).
UniProt P09471, whole entry, looked up: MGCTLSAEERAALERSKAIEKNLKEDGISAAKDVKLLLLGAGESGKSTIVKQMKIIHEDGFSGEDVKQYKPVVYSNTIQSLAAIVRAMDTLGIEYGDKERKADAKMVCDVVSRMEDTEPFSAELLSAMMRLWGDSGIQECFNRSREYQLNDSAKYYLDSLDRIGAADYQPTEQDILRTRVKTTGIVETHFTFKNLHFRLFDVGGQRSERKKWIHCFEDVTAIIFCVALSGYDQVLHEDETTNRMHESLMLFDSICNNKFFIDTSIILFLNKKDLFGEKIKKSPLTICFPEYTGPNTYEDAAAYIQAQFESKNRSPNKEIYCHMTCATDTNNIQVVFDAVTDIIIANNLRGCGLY

biological target: Guanine nucleotide-binding protein G(o) subunit alpha (Homo sapiens) (UniProt P09471); test: RGS7-Galphao binding modulators, primary screen, biochemical, multiplexed bead flow cytometry (AID 1439); settings: at 10 µM, actives lie on both sides;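 also: fluorescent Galphao held in activated GDP-AlF4 state binding bead-coupled RGS7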

SMILES	binding response (% of control)
Nc1cc(S(=O)(=O)N2CCOCC2)ccc1Oc1ccc(F)cc1	inconclusive: 100%
N#CC1(c2ccccc2)CCC(=O)N1Cc1ccccc1 (centres undefined)	inconclusive: 108%
CNC(CC(=O)c1ccc([N+](=O)[O-])cc1)C(Cl)(Cl)Cl (centres undefined)	inactive: 96%
O=C(/C=C/Nc1ccc(Oc2ccccc2Cl)cc1)c1ccco1	inconclusive: 101%
COc1ccc2nc(N/C(=N/S(=O)(=O)c3cccs3)c3ccccc3Cl)sc2c1	inconclusive: 98.2%
CN(CCC#N)CC(=O)Nc1ccc(S(N)(=O)=O)cc1	inconclusive: 124%
O=C(NNc1cc(Cl)cc(Cl)c1)C1CCC1	inconclusive: 126%
CC(=O)n1c(C=Nc2ccc(Cl)cc2)c(O)c2ccccc21	inconclusive: 87.4%
CC(=O)c1c(C)[nH]c(C(=O)CSc2nnc(N)s2)c1C	inconclusive: 96.7%
O=C(/C=C/c1ccco1)N1CCN(c2ccc(F)cc2)CC1	inconclusive: 101%
N#Cc1c(N(CCO)CCO)nc(N)c2c(N)nc3c(c12)CC(=O)N3CC1CCCO1 (centres undefined)	inconclusive: 115%
CCCCN(C)C(=O)C1CCN(CCCc2ccccc2)CC1	active: 170% [activator]
CC(OC(=O)c1cc2ccccc2cc1O)C(=O)Nc1ccc(S(N)(=O)=O)cc1 (centres undefined)	inconclusive: 80.3%
CCOC(=O)c1[nH]c2ccccc2c1NC(=O)C1CCCC1	inconclusive: 100%
COc1ccc(N2CCC(CNC(=S)Nc3ccc(C)cc3C)C2)cc1 (centres undefined)	inconclusive: 118%
Clc1cncc(Cl)c1N/N=C/c1ccccc1	inconclusive: 90.7%
C=CCn1c(C)c(C(C)=O)c(N2CCN(C(c3ccccc3)c3ccccc3)CC2)nc1=S	inactive: 108%
COC(=O)C(NC(=O)c1cccnc1Cl)C(C)C (centres undefined)	inconclusive: 86.9%
O=C(COc1ccccc1)NC1CCCc2ccccc21 (centres undefined)	inactive: 99.3%
CC(C)N1CCN(Cc2cnc(-c3ccccc3)s2)CC1CCO (centres undefined)	inconclusive: 68%
O=C(CCCOc1ccc(Cl)cc1Cl)N1CCCc2ccccc21	inactive: 96.2%
O=C(O)c1ccc(Nc2nc(-c3cc4ccccc4oc3=O)cs2)cc1O	inconclusive: 96.6%
COC(=O)c1cnc(NNS(=O)(=O)c2ccc(Cl)cc2)nc1C(F)(F)F	inconclusive: 132%
COc1ccc(CNC(=O)C/C(C)=N/NC(=O)c2cnccn2)cc1	inactive: 104%

SMILES	binding response (% of control)
C=CCN1C(=O)/C(=c2\sc3nc(=O)c(Cc4ccccc4Cl)nn3c2=O)c2ccccc21	inconclusive: 127%
OC(c1nc2ccccc2[nH]1)C(O)C(O)C(O)c1nc2ccccc2[nH]1 (centres undefined)	inconclusive: 74.6%
CCOc1ccc(CCNC(=O)COC(=O)c2ccccc2O)cc1OCC	inconclusive: 96.8%
Cc1ccc(OCCn2cnc3ccccc3c2=O)c([N+](=O)[O-])c1	inactive: 99%
Oc1ccccc1/C=N/[n+]1ccccc1	inconclusive: 42.3%
CC(=O)Oc1oc(-c2ccccc2)nc1C=Nc1ccc(N(C)C)cc1	inconclusive: 101%
O=C(NN=C1CCCCCCCCCCC1)c1cccc(S(=O)(=O)N2CCOCC2)c1	inactive: 95.3%
CCCc1ccc(C(=O)NNc2cc(Cl)ccc2Cl)cc1	inconclusive: 104%
COCC(C)NCc1ccc(OC)c(Br)c1 (centres undefined)	inactive: 107%
CCN(CC)c1nc(N)n(CCSC(=S)N(C)C)c(=O)n1	inconclusive: 128%
CCSc1ccc(C(=O)NCC(=O)O)cc1	inconclusive: 109%
O=C(COc1ccc(Br)cc1)N1CCc2ccccc21	inconclusive: 118%
O=C(C1CC1)N1CCc2cc(Br)cc(S(=O)(=O)NCC3COc4ccccc4O3)c21 (centres undefined)	inactive: 98.3%
O=C(O)CNC(=O)CC1S/C(=N/N=C2/NC(=O)CS2)NC1=O (centres undefined)	inactive: 114%
C=C(C)C(=O)N1CC2(CC(c3cccc(NC(=O)CC)c3)=NO2)C[C@H]1C(N)=O (some centres undefined)	inconclusive: 110%
CCOc1ccc(CCNC(=O)c2cc3sccc3n2C)cc1OCC	inactive: 141%
COc1ccc(/C=C/C(=O)O)cc1S(=O)(=O)N1CCC(Cc2ccccc2)CC1	inconclusive: -279%
O=C(Nc1ccc(F)cc1)C1CCCN1S(=O)(=O)c1cccc2nsnc12 (centres undefined)	inconclusive: 92.5%
CCN1CCCc2cc(CN(CCN3CCOCC3)C(=S)Nc3cccc(Cl)c3)ccc21	inactive: 89%
COc1ccc(CNC(=O)c2ccc3c(c2)NC(=O)C(C)S3)cc1 (centres undefined)	inconclusive: 89.4%
N#C/C(=C/c1ccco1)C(N)=S	inconclusive: 111%
O=C(O)CN1CCN(Cc2ccccc2F)C1=O	inactive: 100%
Cc1cc(C(=O)OCC(=O)NC2CCS(=O)(=O)C2)c2ccccc2n1 (centres undefined)	inconclusive: 75.9%
CC1CN(C(=O)Nc2ccc(F)cc2)C2(CCCCCC2)O1 (centres undefined)	inconclusive: 121%

SMILES	binding response (% of control)
O=S1(=O)CC/C(=N/Nc2ccccn2)c2cc(F)ccc21	inconclusive: 87.1%
C/C=C(\C)C(=O)N1CC2(CC(c3cccc(NC(=O)CCCCC)c3)=NO2)C[C@@H]1C(N)=O (some centres undefined)	inconclusive: 96.7%
Cc1ccccc1S(=O)(=O)Nc1ncc(C(F)(F)F)cc1Cl	inconclusive: 90.3%
Cc1cccc(-c2nc3c(c(=O)c4ccccc4n3C)c(=O)n2-c2ccccc2)c1	inconclusive: 121%
CCOC(=O)c1ccccc1-c1cn2cc(Cl)ccc2n1	inconclusive: 93.4%
COc1ccccc1-c1cc(C(F)(F)F)nc(S(C)(=O)=O)n1	inactive: 101%
O=c1c2ccccc2nc(-c2ccc(F)cc2)n1NCc1ccccc1O	inactive: 100%
OCCNc1nc(SCc2ccccc2)nc2sc3c(c12)CCC3	inactive: 105%
O=C(CN1CCCCC1)Nc1ccccc1Oc1ccccc1	inconclusive: 98.6%
CC(C)C(OC(=O)c1ccccc1)c1nccc2ccccc12 (centres undefined)	inconclusive: 59.7%
CCCCNC(=O)CCn1c(=O)c2ccccc2n(CC(=O)NCCc2ccc(OC)c(OC)c2)c1=O	inactive: 98.7%
C=C(C)CNC(=S)NNC(=O)c1ccncc1	inconclusive: 91.6%
CCC(=O)N(C)CCc1cc2c(c(OC)c1/C=N/NC(=O)c1ccncc1)OCO2	inconclusive: 49.2%
COc1ccccc1CN1CCCCC1C(=O)O (centres undefined)	inconclusive: 106%
O=C(CN1C(=O)COc2ccc(S(=O)(=O)N3CCCC3)cc21)NCc1ccccn1	inconclusive: 97.2%
O=C(NC(C(=O)N/N=C/c1ccccn1)c1n[nH]c(=O)c2ccccc12)c1ccccc1 (centres undefined)	inconclusive: 99.6%
CCCCCCCCCCn1ccc(=N)cc1	inconclusive: 108%
COC(=O)CCCC1=CC2=C(c3ccccc3)C(=O)C(C)(OC(=O)C3CCCC3)C(=O)C2=CN1C1CC1 (centres undefined)	inconclusive: 55.8%
COc1ccc(Nc2nnc(SCC3CCCO3)s2)cc1 (centres undefined)	inactive: 99%
COc1cccc(C(=O)NCCSc2ccc(Br)cc2)c1	active: 16.5%
O=C(O)COc1ccc(Nc2ccccc2)cc1	inconclusive: 113%
O=C(CN1CCSCC1)N/N=C/c1cccc(Cl)c1	inconclusive: 86.5%
C/C(=N\Nc1cc(C)nc(NCc2ccccc2)n1)c1ccc([N+](=O)[O-])cc1	inconclusive: 89.1%
Cc1ccc(C(O)P(=O)(OC2CCCCC2)OC2CCCCC2)cc1 (centres undefined)	inactive: 108%

SMILES	binding response (% of control)
CCOC(=O)C(=CNc1cc(C(F)(F)F)ccc1N1CCOCC1)C(=O)OCC	inconclusive: 42%
O=C(O)c1csc(-c2ccccc2)n1	inconclusive: 104%
O=C(CN1CCc2ccccc2C1)Nc1cccc(S(=O)(=O)N2CCCC2)c1	inconclusive: 78.5%
COc1ccc(C(=O)Nc2c(-c3cccs3)c(=O)c3ccccc3n2C)cc1	inconclusive: 30.9%
NC(=O)c1ccc(C23CC4CC(CC(C4)C2)C3)o1	inactive: 95.5%
O=C(Nc1nc2ccc([N+](=O)[O-])cc2s1)c1ccncc1	inconclusive: 112%
COc1cc(C(=O)NC(=S)Nc2cccc3nc(C)ccc23)cc(OC)c1OC	inconclusive: 121%
O=C(O)/C=C/c1ccc(S(=O)(=O)Nc2ccc(OCc3ccccc3)cc2)cc1	inconclusive: 111%
C=CCCOc1ccccc1C(N)=O	inconclusive: 103%
COc1cccc(CC2(CO)CCN(Cc3cccn3-c3cccnc3)CC2)c1	inactive: 100%
O=C(Nc1ccccc1C(=O)N1CCCCCC1)c1ccccc1	inconclusive: 112%
CCOC(=O)C1=C(C)NC(=S)NC1c1ccco1 (centres undefined)	inconclusive: 143%
Cc1nc2ccccc2c(=O)n1/N=C/c1cn[nH]c1-c1ccccc1	inconclusive: 194%
CC(C)(C)c1cc(C(=O)NNS(=O)(=O)c2ccccc2)n[nH]1	inconclusive: 68.2%
CC1CCCCN1C(=O)CCc1nnc(Cc2c[nH]c3ccccc23)o1 (centres undefined)	inactive: 99.7%
Cc1ccc(NC(=S)Nc2ccc(C(C)C)cc2)cc1S(=O)(=O)N1CCCCCC1	inactive: 109%
NC(=S)N/N=C/c1ccc(-c2ccc([N+](=O)[O-])cc2)o1	inconclusive: 96.1%
CN(C)c1cccc(N(C)C)c1CNC(=O)C(C)(C)C	inconclusive: 107%
Cc1ccc(Nc2nnc(SCc3nc4ccccc4c(=O)[nH]3)s2)cc1	inactive: 96.5%
NS(=O)(=O)c1cccc(NC(=O)Cn2cc(C(F)(F)F)cc(Cl)c2=O)c1	inconclusive: 83.7%
CC(C)(C)OC(=O)N1CCC(CNC(=O)Nc2ccccc2)CC1	inconclusive: 95.2%
COCCNC(=S)N=Nc1c(O)[nH]c2ccc([N+](=O)[O-])cc12	inconclusive: 470%

Shown with bars between the fields: 25 of the compounds above
SMILES | binding response (% of control)
CNC(CC(=O)c1ccc([N+](=O)[O-])cc1)C(Cl)(Cl)Cl (centres undefined) | inactive: 96%
CN(CCC#N)CC(=O)Nc1ccc(S(N)(=O)=O)cc1 | inconclusive: 124%
O=C(NNc1cc(Cl)cc(Cl)c1)C1CCC1 | inconclusive: 126%
CCCCN(C)C(=O)C1CCN(CCCc2ccccc2)CC1 | active: 170% [activator]
O=C(CCCOc1ccc(Cl)cc1Cl)N1CCCc2ccccc21 | inactive: 96.2%
OC(c1nc2ccccc2[nH]1)C(O)C(O)C(O)c1nc2ccccc2[nH]1 (centres undefined) | inconclusive: 74.6%
Oc1ccccc1/C=N/[n+]1ccccc1 | inconclusive: 42.3%
CC(=O)Oc1oc(-c2ccccc2)nc1C=Nc1ccc(N(C)C)cc1 | inconclusive: 101%
O=C(O)CNC(=O)CC1S/C(=N/N=C2/NC(=O)CS2)NC1=O (centres undefined) | inactive: 114%
CCN1CCCc2cc(CN(CCN3CCOCC3)C(=S)Nc3cccc(Cl)c3)ccc21 | inactive: 89%
O=C(O)CN1CCN(Cc2ccccc2F)C1=O | inactive: 100%
C/C=C(\C)C(=O)N1CC2(CC(c3cccc(NC(=O)CCCCC)c3)=NO2)C[C@@H]1C(N)=O (some centres undefined) | inconclusive: 96.7%
Cc1cccc(-c2nc3c(c(=O)c4ccccc4n3C)c(=O)n2-c2ccccc2)c1 | inconclusive: 121%
O=c1c2ccccc2nc(-c2ccc(F)cc2)n1NCc1ccccc1O | inactive: 100%
CCCCNC(=O)CCn1c(=O)c2ccccc2n(CC(=O)NCCc2ccc(OC)c(OC)c2)c1=O | inactive: 98.7%
C=C(C)CNC(=S)NNC(=O)c1ccncc1 | inconclusive: 91.6%
COc1ccc(Nc2nnc(SCC3CCCO3)s2)cc1 (centres undefined) | inactive: 99%
COc1cccc(C(=O)NCCSc2ccc(Br)cc2)c1 | active: 16.5%
O=C(CN1CCc2ccccc2C1)Nc1cccc(S(=O)(=O)N2CCCC2)c1 | inconclusive: 78.5%
NC(=O)c1ccc(C23CC4CC(CC(C4)C2)C3)o1 | inactive: 95.5%
O=C(Nc1nc2ccc([N+](=O)[O-])cc2s1)c1ccncc1 | inconclusive: 112%
COc1cccc(CC2(CO)CCN(Cc3cccn3-c3cccnc3)CC2)c1 | inactive: 100%
CC(C)(C)c1cc(C(=O)NNS(=O)(=O)c2ccccc2)n[nH]1 | inconclusive: 68.2%
CC(C)(C)OC(=O)N1CCC(CNC(=O)Nc2ccccc2)CC1 | inconclusive: 95.2%
COCCNC(=S)N=Nc1c(O)[nH]c2ccc([N+](=O)[O-])cc12 | inconclusive: 470%
